PubChem BioAssay AID1259308 | NCATS – 2017
Shown is an unselected part of about 59,000 reagents tested. About 1,510 of them (2.6%) count as active. 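Calls use total luciferase alone and ignore viability, so some active siRNAs may act by altering cell number.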 Further read-outs or replicates are left out here. Reagent sequences are not shown.

Assay: 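Candidate targets for better recombinant protein yield in mammalian cells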 (primary screen)
Cells: human HEK293 embryonic kidney cells stably expressing firefly luciferase (HEK-CMV-Luc2-Hygro)
Knock-down reagent: single siRNA against human genes, 0.8 pmol siRNA per well
Time to read-out: 72 h
Measurement: 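Luciferase light (ONE-Glo) measured on one replicate plate set and viability (CellTiter-Glo) on the other, scaled to a negative control siRNA, with robust z-scores and luciferase per cell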
Direction: total luciferase, z-score and total luciferase, % of control: higher = more reporter protein produced; luciferase per cell, z-score: higher = more reporter output per viable cell
Call rule: 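An siRNA counts as active if its total luciferase robust z-score exceeds 3; genes with two or more such siRNAs out of three were retested with fresh siRNAs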
Calls: active = raised luciferase; inactive = no rise

| target gene | PubChem SID | total luciferase, z-score | total luciferase, % of control | luciferase per cell, z-score | activity call |
| --- | --- | --- | --- | --- | --- |
| ZNRF3 (zinc and ring finger 3) | SID160735075 | -0.0228 | 81.4 | 1.04 | inactive |
| ZNRF3 (zinc and ring finger 3) | SID160735076 | 0.149 | 84.9 | 0.141 | inactive |
| ZNRF3 (zinc and ring finger 3) | SID160751769 | 1.74 | 116 | 1.97 | inactive |
| KLRA1P (killer cell lectin like receptor A1, pseudogene) | SID160729147 | -0.701 | 67.9 | -1.39 | inactive |
| KLRA1P (killer cell lectin like receptor A1, pseudogene) | SID160729148 | -1.34 | 55.3 | -1.41 | inactive |
| KLRA1P (killer cell lectin like receptor A1, pseudogene) | SID160729149 | 0.776 | 97.3 | 1.09 | inactive |
| PRPS1L1 (phosphoribosyl pyrophosphate synthetase 1 like 1) | SID160729340 | -0.394 | 74.1 | 0.291 | inactive |
| PRPS1L1 (phosphoribosyl pyrophosphate synthetase 1 like 1) | SID160729445 | -0.0941 | 80 | -0.431 | inactive |
| PRPS1L1 (phosphoribosyl pyrophosphate synthetase 1 like 1) | SID160729551 | -0.164 | 78.6 | 1.61 | inactive |
| PNPLA1 (patatin like domain 1, omega-hydroxyceramide transacylase) | SID160763729 | 0.478 | 91.4 | 1.09 | inactive |
| PNPLA1 (patatin like domain 1, omega-hydroxyceramide transacylase) | SID160763730 | -0.0982 | 79.9 | 0.0142 | inactive |
| PNPLA1 (patatin like domain 1, omega-hydroxyceramide transacylase) | SID160763731 | -0.0171 | 81.5 | 0.548 | inactive |

Next part (3 carried over from the part before).
| target gene | PubChem SID | total luciferase, z-score | total luciferase, % of control | luciferase per cell, z-score | activity call |
| --- | --- | --- | --- | --- | --- |
| PNPLA1 (patatin like domain 1, omega-hydroxyceramide transacylase) | SID160763729 | 0.478 | 91.4 | 1.09 | inactive |
| PNPLA1 (patatin like domain 1, omega-hydroxyceramide transacylase) | SID160763730 | -0.0982 | 79.9 | 0.0142 | inactive |
| PNPLA1 (patatin like domain 1, omega-hydroxyceramide transacylase) | SID160763731 | -0.0171 | 81.5 | 0.548 | inactive |
| ANXA11 (annexin A11) | SID160717938 | -1.19 | 58.3 | -1.25 | inactive |
| ANXA11 (annexin A11) | SID160717948 | 0.107 | 84 | -0.185 | inactive |
| ANXA11 (annexin A11) | SID160717959 | -0.949 | 63 | -0.621 | inactive |
| UNKL (unk like zinc finger) | SID160747872 | -0.426 | 73.4 | -0.905 | inactive |
| UNKL (unk like zinc finger) | SID160747873 | -0.164 | 78.6 | -0.636 | inactive |
| UNKL (unk like zinc finger) | SID160747874 | 0.314 | 88.1 | 0.14 | inactive |
| UNKL (unk like zinc finger) | SID160748312 | 2.5 | 132 | 1.05 | inactive |
| UNKL (unk like zinc finger) | SID160748313 | 1.63 | 114 | 0.989 | inactive |
| UNKL (unk like zinc finger) | SID160748314 | 0.582 | 93.5 | 0.288 | inactive |
| FBXO28 (F-box protein 28) | SID160735750 | 1.07 | 103 | 0.995 | inactive |
| FBXO28 (F-box protein 28) | SID160735751 | 0.0238 | 82.4 | 0.0708 | inactive |
| FBXO28 (F-box protein 28) | SID160735752 | -0.47 | 72.5 | -0.418 | inactive |
